Reference: article PMC5065530
Results are given in words; binding and its absence hold for the method and conditions named. In cells and extracts the contact can be indirect. Some results given as binding are weak or reduced against the parent protein; the word gives no strength. Sequences can lack the tags named with a protein.

Target: T1, Flag-HA-tagged WT 53BP1 (p53-binding protein 1), Q12888
T1 chain: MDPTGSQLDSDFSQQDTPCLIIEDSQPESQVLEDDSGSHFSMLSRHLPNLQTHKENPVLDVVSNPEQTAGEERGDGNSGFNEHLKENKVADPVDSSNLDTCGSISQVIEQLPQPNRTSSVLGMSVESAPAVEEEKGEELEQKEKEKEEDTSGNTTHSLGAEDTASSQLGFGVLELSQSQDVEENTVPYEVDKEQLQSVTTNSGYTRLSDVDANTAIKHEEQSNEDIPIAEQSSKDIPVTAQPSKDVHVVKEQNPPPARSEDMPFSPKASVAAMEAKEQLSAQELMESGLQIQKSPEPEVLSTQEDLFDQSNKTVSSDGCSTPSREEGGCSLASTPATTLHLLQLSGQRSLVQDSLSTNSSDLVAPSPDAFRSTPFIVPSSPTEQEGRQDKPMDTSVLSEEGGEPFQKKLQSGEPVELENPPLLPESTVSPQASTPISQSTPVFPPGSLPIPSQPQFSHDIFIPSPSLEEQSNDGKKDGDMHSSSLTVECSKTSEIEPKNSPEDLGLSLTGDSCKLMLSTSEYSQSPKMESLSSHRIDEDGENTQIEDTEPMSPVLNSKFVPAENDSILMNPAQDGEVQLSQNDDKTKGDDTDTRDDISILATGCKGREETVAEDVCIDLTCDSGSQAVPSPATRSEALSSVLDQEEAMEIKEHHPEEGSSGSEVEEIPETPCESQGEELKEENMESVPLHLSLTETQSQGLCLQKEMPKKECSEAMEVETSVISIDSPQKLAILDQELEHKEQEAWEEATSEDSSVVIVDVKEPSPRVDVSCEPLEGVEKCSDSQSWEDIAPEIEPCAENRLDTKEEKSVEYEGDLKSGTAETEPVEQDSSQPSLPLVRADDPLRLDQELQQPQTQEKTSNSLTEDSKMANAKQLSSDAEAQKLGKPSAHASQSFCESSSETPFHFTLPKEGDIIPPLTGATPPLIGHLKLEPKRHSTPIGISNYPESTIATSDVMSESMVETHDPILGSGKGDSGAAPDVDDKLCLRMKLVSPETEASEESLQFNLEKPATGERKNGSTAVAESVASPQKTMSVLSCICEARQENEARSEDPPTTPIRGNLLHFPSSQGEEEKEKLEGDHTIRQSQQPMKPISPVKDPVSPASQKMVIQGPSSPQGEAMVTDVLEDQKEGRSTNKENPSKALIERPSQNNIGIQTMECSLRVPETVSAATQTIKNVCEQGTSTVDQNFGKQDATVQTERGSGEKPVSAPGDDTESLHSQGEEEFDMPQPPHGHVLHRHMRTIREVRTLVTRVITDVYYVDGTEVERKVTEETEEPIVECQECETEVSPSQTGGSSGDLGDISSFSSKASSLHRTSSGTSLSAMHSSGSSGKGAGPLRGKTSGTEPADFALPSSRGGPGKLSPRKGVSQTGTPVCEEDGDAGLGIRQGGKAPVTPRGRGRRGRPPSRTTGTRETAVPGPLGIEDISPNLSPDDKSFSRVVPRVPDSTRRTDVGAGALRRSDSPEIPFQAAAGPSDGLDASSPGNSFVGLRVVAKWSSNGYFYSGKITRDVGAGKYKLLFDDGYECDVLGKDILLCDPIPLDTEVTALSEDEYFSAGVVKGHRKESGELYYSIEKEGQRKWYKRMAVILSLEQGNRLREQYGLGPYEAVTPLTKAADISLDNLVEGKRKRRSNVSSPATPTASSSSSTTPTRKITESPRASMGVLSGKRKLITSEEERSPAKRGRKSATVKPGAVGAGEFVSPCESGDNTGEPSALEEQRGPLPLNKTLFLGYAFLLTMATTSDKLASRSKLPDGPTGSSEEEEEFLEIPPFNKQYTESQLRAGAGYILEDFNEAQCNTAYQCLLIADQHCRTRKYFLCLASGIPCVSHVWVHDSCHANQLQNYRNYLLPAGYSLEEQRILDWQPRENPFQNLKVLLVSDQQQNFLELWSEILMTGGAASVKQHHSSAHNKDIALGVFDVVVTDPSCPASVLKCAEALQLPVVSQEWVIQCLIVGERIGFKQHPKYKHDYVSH
Assay: co-IP; Flag-HA-53BP1 complexes purified on anti-FLAG M2 magnetic resin from 1-2 mg dialysed lysate (20 mM HEPES pH 7.9, 100 mM KCl) of N3-treated stably complemented 53BP1Δ MCF-7 lines; interacting proteins by immunoblotting
Details: remark: other sources report otherwise

B1: Ubiquitin Specific Protease USP28, Q96RU2 1-1077 (enzyme)
chain: MTAELQQDDAAGAADGHGSSCQMLLNQLREITGIQDPSFLHEALKASNGDITQAVSLLTDERVKEPSQDTVATEPSEVEGSAANKEVLAKVIDLTHDNKDDLQAAIALSLLESPKIQADGRDLNRMHEATSAETKRSKRKRCEVWGENPNPNDWRRVDGWPVGLKNVGNTCWFSAVIQSLFQLPEFRRLVLSYSLPQNVLENCRSHTEKRNIMFMQELQYLFALMMGSNRKFVDPSAALDLLKGAFRSSEEQQQDVSEFTHKLLDWLEDAFQLAVNVNSPRNKSENPMVQLFYGTFLTEGVREGKPFCNNETFGQYPLQVNGYRNLDECLEGAMVEGDVELLPSDHSVKYGQERWFTKLPPVLTFELSRFEFNQSLGQPEKIHNKLEFPQIIYMDRYMYRSKELIRNKRECIRKLKEEIKILQQKLERYVKYGSGPARFPLPDMLKYVIEFASTKPASESCPPESDTHMTLPLSSVHCSVSDQTSKESTSTESSSQDVESTFSSPEDSLPKSKPLTSSRSSMEMPSQPAPRTVTDEEINFVKTCLQRWRSEIEQDIQDLKTCIASTTQTIEQMYCDPLLRQVPYRLHAVLVHEGQANAGHYWAYIYNQPRQSWLKYNDISVTESSWEEVERDSYGGLRNVSAYCLMYINDKLPYFNAEAAPTESDQMSEVEALSVELKHYIQEDNWRFEQEVEEWEEEQSCKIPQMESSTNSSSQDYSTSQEPSVASSHGVRCLSSEHAVIVKEQTAQAIANTARAYEKSGVEAALSEVMLSPAMQGVILAIAKARQTFDRDGSEAGLIKAFHEEYSRLYQLAKETPTSHSDPRLQHVLVYFFQNEAPKRVVERTLLEQFADKNLSYDERSISIMKVAQAKLKEIGPDDMNMEEYKKWHEDYSLFRKVSVYLLTGLELYQKGKYQEALSYLVYAYQSNAALLMKGPRRGVKESVIALYRRKCLLELNAKAASLFETNDDHSVTEGINVMNELIIPCIHLIINNDISKDDLDAIEVMRNHWCSYLGQDIAENLQLCLGEFLPRLLDPSAEIIVLKEPPTIRPNSPYDLCSRFAAVMESIQGVSTVTVK
For B1, the binding was “binds”.
